# Values quoted from earlier work, collected in patent publication US20140142140A1, “PHARMACEUTICAL COMPOSITION FOR NEUROLOGICAL DISORDERS” (priority 2011, published 2014).
# For at least one compound, name, drawing or mass did not settle the structure.
# Tested on: mood stabilisation or epileptic symptoms or events
# Conditions: per day; cited from earlier work
structure (smiles),measurement,value
CCOC(=O)Nc1ccc(NCc2ccc(F)cc2)cc1N [Retigabine],Minimum typical dose/day effective for mood stabilisation or treatment of epileptic symptoms or events,600 mg
